Experimental data reported in the supplement of paper PMC10849652.
The other results are listed elsewhere or left out.

The chains behind the UniProt entries cited, without tags or fusion partners. Where a name states a change or a piece, a line headed by the entry shows the natural chain unless it says otherwise.
UniProt Q4G176: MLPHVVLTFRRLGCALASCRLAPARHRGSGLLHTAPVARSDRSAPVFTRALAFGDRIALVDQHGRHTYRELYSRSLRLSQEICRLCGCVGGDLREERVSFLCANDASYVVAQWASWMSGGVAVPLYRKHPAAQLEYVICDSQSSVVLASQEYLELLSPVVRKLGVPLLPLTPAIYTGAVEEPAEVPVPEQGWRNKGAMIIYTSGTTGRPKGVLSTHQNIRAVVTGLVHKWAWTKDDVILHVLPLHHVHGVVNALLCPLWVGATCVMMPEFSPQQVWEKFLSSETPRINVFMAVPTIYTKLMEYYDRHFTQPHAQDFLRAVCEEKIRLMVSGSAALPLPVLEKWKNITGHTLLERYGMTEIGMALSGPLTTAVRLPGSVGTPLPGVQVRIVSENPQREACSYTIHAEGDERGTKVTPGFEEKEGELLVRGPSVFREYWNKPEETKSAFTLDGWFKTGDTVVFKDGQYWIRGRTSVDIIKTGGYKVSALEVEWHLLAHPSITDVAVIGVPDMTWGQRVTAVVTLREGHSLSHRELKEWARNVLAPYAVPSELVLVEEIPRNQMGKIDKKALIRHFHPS
UniProt P23526: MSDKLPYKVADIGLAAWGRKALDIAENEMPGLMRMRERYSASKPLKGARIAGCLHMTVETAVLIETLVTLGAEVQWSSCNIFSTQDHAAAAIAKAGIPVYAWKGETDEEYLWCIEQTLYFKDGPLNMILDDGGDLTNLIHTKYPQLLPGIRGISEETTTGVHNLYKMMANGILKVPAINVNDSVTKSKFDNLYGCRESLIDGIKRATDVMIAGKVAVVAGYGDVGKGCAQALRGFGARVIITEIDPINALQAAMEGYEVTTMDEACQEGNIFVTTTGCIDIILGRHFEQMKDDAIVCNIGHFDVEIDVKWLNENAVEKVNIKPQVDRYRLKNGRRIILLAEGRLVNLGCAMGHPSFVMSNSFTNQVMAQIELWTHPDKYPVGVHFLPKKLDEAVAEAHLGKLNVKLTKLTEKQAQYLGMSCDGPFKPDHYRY
UniProt P35612: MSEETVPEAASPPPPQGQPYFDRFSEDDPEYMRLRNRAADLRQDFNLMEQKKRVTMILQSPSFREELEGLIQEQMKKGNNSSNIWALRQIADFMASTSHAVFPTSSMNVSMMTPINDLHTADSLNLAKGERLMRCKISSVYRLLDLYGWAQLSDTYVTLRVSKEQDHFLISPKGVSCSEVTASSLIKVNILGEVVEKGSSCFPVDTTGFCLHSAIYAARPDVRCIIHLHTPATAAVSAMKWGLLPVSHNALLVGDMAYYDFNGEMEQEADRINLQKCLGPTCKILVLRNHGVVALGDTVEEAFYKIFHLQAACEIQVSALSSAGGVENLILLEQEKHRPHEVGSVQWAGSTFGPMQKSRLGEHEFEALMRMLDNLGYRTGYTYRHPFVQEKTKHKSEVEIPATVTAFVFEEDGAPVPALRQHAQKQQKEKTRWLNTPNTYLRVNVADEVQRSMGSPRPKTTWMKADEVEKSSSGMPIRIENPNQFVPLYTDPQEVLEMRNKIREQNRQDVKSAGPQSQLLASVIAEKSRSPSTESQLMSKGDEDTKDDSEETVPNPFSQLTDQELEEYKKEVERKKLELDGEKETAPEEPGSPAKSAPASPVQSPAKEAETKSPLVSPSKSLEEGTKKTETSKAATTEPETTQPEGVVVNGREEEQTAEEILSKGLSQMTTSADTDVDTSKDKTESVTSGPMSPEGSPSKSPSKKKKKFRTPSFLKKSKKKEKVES
UniProt Q6DHV7: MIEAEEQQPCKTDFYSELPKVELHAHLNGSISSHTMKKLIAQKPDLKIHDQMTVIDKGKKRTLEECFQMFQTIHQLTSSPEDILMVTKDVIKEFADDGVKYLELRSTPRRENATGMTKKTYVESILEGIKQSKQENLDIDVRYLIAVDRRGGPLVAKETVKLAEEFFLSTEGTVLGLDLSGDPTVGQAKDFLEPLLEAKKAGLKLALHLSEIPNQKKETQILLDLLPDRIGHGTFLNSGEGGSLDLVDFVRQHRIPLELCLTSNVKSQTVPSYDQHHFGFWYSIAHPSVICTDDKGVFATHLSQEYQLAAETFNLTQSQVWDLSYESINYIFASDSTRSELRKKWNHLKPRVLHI
UniProt Q9UHX3: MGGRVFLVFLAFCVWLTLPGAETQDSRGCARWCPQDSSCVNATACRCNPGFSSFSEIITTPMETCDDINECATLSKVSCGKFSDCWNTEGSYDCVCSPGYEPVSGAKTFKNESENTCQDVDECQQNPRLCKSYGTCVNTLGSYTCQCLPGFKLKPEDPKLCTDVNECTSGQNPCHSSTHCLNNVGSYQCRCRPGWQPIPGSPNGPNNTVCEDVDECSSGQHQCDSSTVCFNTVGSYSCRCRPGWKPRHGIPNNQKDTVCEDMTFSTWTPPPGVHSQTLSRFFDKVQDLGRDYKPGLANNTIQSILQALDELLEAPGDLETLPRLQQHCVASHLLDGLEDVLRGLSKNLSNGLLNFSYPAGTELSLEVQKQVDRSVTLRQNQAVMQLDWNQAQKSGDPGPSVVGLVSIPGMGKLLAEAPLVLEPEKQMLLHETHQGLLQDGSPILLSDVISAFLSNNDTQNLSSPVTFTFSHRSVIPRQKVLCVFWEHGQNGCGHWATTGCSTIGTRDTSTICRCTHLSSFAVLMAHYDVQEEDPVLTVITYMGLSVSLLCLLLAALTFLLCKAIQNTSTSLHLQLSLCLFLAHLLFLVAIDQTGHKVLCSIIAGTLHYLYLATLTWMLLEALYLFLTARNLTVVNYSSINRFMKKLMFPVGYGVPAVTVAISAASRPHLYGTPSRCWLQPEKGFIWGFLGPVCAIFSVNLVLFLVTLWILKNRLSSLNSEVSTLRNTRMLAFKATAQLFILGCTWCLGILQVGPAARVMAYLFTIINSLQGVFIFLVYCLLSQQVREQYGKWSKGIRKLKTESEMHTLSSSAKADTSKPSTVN
UniProt P24666: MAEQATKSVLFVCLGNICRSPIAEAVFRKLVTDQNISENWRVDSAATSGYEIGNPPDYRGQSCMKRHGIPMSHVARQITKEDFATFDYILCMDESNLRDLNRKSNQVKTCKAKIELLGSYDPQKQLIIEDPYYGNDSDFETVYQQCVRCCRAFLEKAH
UniProt Q92667: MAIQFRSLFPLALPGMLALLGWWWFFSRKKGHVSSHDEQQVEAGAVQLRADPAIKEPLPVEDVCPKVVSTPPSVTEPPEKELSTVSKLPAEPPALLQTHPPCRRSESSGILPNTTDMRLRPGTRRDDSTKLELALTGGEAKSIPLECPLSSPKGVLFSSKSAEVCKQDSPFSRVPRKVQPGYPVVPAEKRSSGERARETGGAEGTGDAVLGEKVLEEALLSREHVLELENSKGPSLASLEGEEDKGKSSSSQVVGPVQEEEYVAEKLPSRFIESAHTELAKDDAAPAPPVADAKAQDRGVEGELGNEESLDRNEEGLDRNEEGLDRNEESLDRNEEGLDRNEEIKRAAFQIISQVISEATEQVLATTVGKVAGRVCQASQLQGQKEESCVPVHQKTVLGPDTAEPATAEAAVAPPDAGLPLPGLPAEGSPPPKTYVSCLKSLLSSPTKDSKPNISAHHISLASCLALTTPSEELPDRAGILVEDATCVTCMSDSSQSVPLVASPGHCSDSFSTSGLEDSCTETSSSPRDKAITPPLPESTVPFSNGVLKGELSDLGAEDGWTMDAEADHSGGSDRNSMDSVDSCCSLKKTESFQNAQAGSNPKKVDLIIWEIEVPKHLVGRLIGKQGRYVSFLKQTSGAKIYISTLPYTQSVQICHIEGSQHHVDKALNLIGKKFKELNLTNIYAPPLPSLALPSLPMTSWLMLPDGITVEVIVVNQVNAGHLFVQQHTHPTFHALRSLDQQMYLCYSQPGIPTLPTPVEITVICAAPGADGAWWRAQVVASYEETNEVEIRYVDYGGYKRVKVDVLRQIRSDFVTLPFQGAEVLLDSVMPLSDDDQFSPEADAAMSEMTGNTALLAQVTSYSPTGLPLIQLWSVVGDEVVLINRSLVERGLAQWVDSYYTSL
UniProt Q9BV57: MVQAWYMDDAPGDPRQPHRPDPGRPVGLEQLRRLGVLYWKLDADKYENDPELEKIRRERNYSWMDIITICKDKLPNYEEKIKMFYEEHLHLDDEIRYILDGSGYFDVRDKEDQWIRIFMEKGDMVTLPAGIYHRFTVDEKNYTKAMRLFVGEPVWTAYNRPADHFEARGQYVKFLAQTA
UniProt P52594: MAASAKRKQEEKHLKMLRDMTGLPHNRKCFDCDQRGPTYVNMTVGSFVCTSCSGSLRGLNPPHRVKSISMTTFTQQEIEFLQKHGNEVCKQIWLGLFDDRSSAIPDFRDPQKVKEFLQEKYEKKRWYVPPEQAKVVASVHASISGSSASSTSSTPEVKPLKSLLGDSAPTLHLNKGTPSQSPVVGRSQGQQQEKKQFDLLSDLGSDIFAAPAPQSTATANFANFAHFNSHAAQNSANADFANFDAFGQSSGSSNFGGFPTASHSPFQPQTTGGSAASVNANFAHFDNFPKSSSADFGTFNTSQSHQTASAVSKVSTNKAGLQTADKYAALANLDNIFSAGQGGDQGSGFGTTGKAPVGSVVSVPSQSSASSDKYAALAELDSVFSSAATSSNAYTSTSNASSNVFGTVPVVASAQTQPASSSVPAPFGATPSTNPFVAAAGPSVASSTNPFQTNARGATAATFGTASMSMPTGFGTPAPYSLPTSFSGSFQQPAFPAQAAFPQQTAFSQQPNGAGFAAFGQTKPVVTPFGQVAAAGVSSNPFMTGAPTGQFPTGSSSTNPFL
UniProt Q12904: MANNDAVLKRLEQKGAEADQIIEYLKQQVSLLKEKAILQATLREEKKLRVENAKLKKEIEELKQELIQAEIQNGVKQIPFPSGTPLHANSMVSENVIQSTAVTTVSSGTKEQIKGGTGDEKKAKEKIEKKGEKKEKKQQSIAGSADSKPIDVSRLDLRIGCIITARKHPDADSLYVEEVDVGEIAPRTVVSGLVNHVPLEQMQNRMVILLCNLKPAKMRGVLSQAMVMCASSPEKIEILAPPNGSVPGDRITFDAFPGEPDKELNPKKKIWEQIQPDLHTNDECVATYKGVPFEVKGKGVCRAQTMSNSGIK
UniProt O95831, whole entry, looked up: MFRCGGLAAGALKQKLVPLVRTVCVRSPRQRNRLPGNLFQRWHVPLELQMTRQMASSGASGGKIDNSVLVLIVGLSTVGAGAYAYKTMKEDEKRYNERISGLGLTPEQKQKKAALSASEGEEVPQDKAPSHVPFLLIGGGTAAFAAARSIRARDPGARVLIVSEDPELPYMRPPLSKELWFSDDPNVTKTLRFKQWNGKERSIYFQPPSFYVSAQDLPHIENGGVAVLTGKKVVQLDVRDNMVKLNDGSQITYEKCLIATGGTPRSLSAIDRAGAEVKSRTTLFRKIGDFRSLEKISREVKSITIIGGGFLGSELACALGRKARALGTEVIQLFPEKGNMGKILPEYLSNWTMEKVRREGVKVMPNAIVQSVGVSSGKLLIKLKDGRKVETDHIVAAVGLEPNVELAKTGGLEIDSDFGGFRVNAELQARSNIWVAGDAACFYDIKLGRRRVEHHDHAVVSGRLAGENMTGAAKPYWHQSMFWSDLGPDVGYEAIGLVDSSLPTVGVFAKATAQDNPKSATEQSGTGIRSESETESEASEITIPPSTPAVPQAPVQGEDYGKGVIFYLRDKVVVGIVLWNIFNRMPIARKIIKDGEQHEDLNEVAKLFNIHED
UniProt O43823: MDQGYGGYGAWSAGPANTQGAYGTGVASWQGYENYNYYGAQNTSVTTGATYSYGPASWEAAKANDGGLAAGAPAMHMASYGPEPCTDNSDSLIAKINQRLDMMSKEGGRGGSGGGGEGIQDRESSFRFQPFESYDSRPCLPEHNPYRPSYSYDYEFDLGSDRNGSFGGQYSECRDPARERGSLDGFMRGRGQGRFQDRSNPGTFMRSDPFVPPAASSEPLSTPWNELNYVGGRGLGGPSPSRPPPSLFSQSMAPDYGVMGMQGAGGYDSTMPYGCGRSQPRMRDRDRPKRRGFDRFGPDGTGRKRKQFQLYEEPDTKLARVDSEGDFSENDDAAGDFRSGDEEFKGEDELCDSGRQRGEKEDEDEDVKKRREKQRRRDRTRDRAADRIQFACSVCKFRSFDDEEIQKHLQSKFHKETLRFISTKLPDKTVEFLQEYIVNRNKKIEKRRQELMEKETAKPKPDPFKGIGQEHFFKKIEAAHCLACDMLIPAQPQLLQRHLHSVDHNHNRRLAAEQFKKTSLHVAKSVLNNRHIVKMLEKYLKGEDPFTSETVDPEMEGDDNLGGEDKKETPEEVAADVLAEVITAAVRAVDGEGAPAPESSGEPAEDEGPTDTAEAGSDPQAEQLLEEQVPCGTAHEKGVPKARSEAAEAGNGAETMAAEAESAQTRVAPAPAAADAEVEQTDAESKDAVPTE

How the values were obtained:
Test in all cases: log2 fold change, soluble protein after heating vs DMSO (PISA); higher = thermal stabilisation; K562 lysate, 10 uM; active = over 0.2 and 3.5 SD of the protein, either way, in both replicates (recomputed)
lapatinib = compound: CS(=O)(=O)CCNCc1ccc(-c2ccc3ncnc(Nc4ccc(OCc5cccc(F)c5)c(Cl)c4)c3c2)o1 [lapatinib]
How it was run: (§1)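 Pellets of K562 cells were dounce-homogenised in PBS pH 7.4 with 1 mM MgCl2, and the crude extract was held at 1 mg/mL protein for a 30 min treatment with 10 μM compound. Aliquots were heated for 3 min over 48°C-58°C and pooled before NP-40 was added to 0.5% at 4°C. The supernatant from 21,000xg for 90 min was quantified by TMTpro 16plex LC-MS/MS with channel sums equalised. Values are reported from duplicates as log-two fold change in thermal stability relative to solvent controls.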

pictilisib = compound: CS(=O)(=O)N1CCN(Cc2cc3nc(-c4cccc5[nH]ncc45)nc(N4CCOCC4)c3s2)CC1 [pictilisib]
How it was run: as §1

crizotinib = compound: C[C@@H](Oc1cc(-c2cnn(C3CCNCC3)c2)cnc1N)c1c(Cl)ccc(F)c1Cl [crizotinib]
How it was run: as §1

[1] = compound: C[C@H](C1=CC=C(C=C1)C(=O)NC2=C3C=CNC3=NC=C2)N
How it was run: as §1

duvelisib = compound: C[C@H](Nc1ncnc2nc[nH]c12)c1cc2cccc(Cl)c2c(=O)n1-c1ccccc1 [duvelisib]
How it was run: as §1

gandotinib = compound: Cc1cc(Nc2cc(CN3CCOCC3)c3nc(C)c(Cc4ccc(Cl)cc4F)n3n2)n[nH]1 [gandotinib]
How it was run: as §1

tozasertib = compound: Cc1cc(Nc2cc(N3CCN(C)CC3)nc(Sc3ccc(NC(=O)C4CC4)cc3)n2)n[nH]1 [tozasertib]
How it was run: as §1

doramapimod = compound: Cc1ccc(-n2nc(C(C)(C)C)cc2NC(=O)Nc2ccc(OCCN3CCOCC3)c3ccccc23)cc1 [doramapimod]
How it was run: as §1

bafetinib = compound: Cc1ccc(NC(=O)c2ccc(CN3CC[C@H](N(C)C)C3)c(C(F)(F)F)c2)cc1Nc1nccc(-c2cncnc2)n1 [bafetinib]
How it was run: as §1

[2] = compound: Cc1cccc(CC(=O)N2CCc3c2ccc(-c2cn(C)c4ncnc(N)c24)c3F)n1
How it was run: as §1

nilotinib = compound: Cc1cn(-c2cc(NC(=O)c3ccc(C)c(Nc4nccc(-c5cccnc5)n4)c3)cc(C(F)(F)F)c2)cn1 [nilotinib]
How it was run: as §1

[3] = compound: Cc1nc(Nc2n[nH]c3c2CN(C(=O)N[C@H](CN(C)C)c2ccccc2)C3(C)C)c2sccc2n1
How it was run: as §1

dasatinib = compound: Cc1nc(Nc2ncc(C(=O)Nc3c(C)cccc3Cl)s2)cc(N2CCN(CCO)CC2)n1 [dasatinib]
How it was run: as §1

[4] = compound: Cc1ncc(-c2ccnc(Nc3ccc(S(C)(=O)=O)cc3)n2)n1C(C)C
How it was run: as §1

[5] = compound: Cn1cc(-c2ccc3c(c2)CCN3C(=O)Cc2cccc(C(F)(F)F)c2)c2c(N)ncnc21
How it was run: as §1

quisinostat = compound: Cn1cc(CNCC2CCN(c3ncc(C(=O)NO)cn3)CC2)c2ccccc21 [quisinostat]
How it was run: as §1

tipifarnib = compound: Cn1cncc1[C@@](N)(c1ccc(Cl)cc1)c1ccc2c(c1)c(-c1cccc(Cl)c1)cc(=O)n2C [tipifarnib]
How it was run: as §1

[6] = compound: NC(=O)Nc1cc(-c2cccc(F)c2)sc1C(=O)N[C@H]1CCCNC1
How it was run: as §1

[7] = compound: NC(=O)c1cnc(N[C@@H]2CCCC[C@@H]2N)nc1Nc1cccc(-n2nccn2)c1
How it was run: as §1

[8] = compound: NC1(c2ccc(-c3nc4ccn5c(=O)[nH]nc5c4cc3-c3ccccc3)cc2)CCC1
How it was run: as §1

Measured: log2 fold change

ACSF3 (UniProt Q4G176)
inactive: lapatinib 0.009 | pictilisib -0.075 | crizotinib -0.035 | [1] 0.035 | duvelisib 0.04 | gandotinib 0.057 | tozasertib 0.019 | doramapimod -0.006 | bafetinib 0.03 | [2] -0.03 | nilotinib -0.017 | [3] 0.025 | dasatinib 0.005 | [4] 0.007 | [5] 0.033 | quisinostat -0.006 | tipifarnib -0.001 | [6] -0.011 | [7] 0.034 | [8] -0.062

AHCY (UniProt P23526)
inactive: lapatinib -0.003 | pictilisib -0.011 | crizotinib 0.037 | [1] -0.037 | duvelisib -0.004 | gandotinib 0.016 | tozasertib -0.01 | doramapimod 0.011 | bafetinib 0.051 | [2] 0.008 | nilotinib -0.004 | [3] -0.015 | dasatinib 0.005 | [4] -0.041 | [5] 0.015 | quisinostat 0.045 | tipifarnib 0.011 | [6] -0.024 | [7] -0.017 | [8] -0.004

AGPAT5 (UniProt Q9NUQ2)
inactive: lapatinib 0.013 | pictilisib -0.018 | crizotinib -0.076 | [1] 0.071 | duvelisib 0.033 | gandotinib -0.105 | tozasertib -0.004 | doramapimod -0.071 | bafetinib -0.086 | [2] 0.036 | nilotinib -0.016 | [3] -0.028 | dasatinib -0.035 | [4] -0.008 | [5] -0.035 | quisinostat 0.114 | tipifarnib 0.024 | [6] 0.002 | [7] 0.01 | [8] -0.018

ADD2 (UniProt P35612)
inactive: lapatinib 0 | pictilisib 0.011 | crizotinib 0.035 | [1] -0.024 | duvelisib 0.031 | gandotinib 0.055 | tozasertib -0.007 | doramapimod -0.02 | bafetinib -0.039 | [2] 0.053 | nilotinib -0.012 | [3] -0.003 | dasatinib 0.007 | [4] 0.001 | [5] 0.004 | quisinostat -0.003 | tipifarnib 0.015 | [6] 0.024 | [7] -0.007 | [8] 0.001

ADAL (UniProt Q6DHV7)
inactive: lapatinib 0.011 | pictilisib -0.029 | crizotinib 0.047 | [1] 0.053 | duvelisib 0.023 | gandotinib -0.039 | tozasertib -0.006 | doramapimod -0.02 | bafetinib 0.024 | [2] -0.039 | nilotinib -0.031 | [3] -0.015 | dasatinib -0.011 | [4] 0.058 | [5] -0.004 | quisinostat 0.026 | tipifarnib 0.002 | [6] 0.002 | [7] 0.024 | [8] 0.013

ADGRE2 (UniProt Q9UHX3)
inactive: lapatinib -0.074 | pictilisib -0.009 | crizotinib 0.024 | [1] 0.025 | duvelisib -0.046 | gandotinib -0.01 | tozasertib -0.01 | doramapimod -0.031 | bafetinib -0.019 | [2] -0.006 | nilotinib -0.028 | [3] -0.052 | dasatinib 0.059 | [4] -0.025 | [5] -0.016 | quisinostat -0.044 | tipifarnib -0.038 | [6] 0.019 | [7] 0.008 | [8] 0.025

ACP1 isoform 2 (UniProt P24666)
inactive: lapatinib -0.043 | pictilisib -0.001 | crizotinib -0.047 | [1] 0.04 | duvelisib -0.017 | gandotinib -0.014 | tozasertib 0 | doramapimod 0.002 | bafetinib -0.041 | [2] 0.029 | nilotinib 0.003 | [3] -0.036 | dasatinib -0.078 | [4] -0.009 | [5] 0.033 | quisinostat -0.003 | tipifarnib 0.005 | [6] 0.004 | [7] 0.016 | [8] 0.023

AGO1 (UniProt Q9UL18)
inactive: lapatinib 0.009 | pictilisib -0.056 | crizotinib -0.008 | [1] 0.107 | duvelisib 0.029 | gandotinib -0.051 | tozasertib -0.099 | doramapimod 0.008 | bafetinib 0.01 | [2] -0.084 | nilotinib 0.037 | [3] 0.051 | dasatinib 0.037 | [4] -0.024 | [5] 0.002 | quisinostat -0.038 | tipifarnib -0.004 | [6] 0.04 | [7] -0.015 | [8] -0.025

ADAT3 (UniProt Q96EY9)
inactive: lapatinib -0.058 | pictilisib -0.018 | crizotinib 0.002 | [1] 0.044 | duvelisib 0.03 | gandotinib 0.004 | tozasertib 0.087 | doramapimod -0.027 | bafetinib -0.043 | [2] -0.039 | nilotinib -0.009 | [3] -0.006 | dasatinib 0.024 | [4] -0.001 | [5] 0.003 | quisinostat 0.03 | tipifarnib 0.004 | [6] 0.007 | [7] 0.006 | [8] 0.098

AKR7A2 (UniProt O43488)
inactive: lapatinib -0.004 | pictilisib -0.012 | crizotinib 0.054 | [1] -0.008 | duvelisib -0.011 | gandotinib -0.032 | tozasertib 0.036 | doramapimod 0.018 | bafetinib -0.002 | [2] -0.021 | nilotinib 0.003 | [3] -0.003 | dasatinib -0.011 | [4] -0.036 | [5] 0.002 | quisinostat 0.05 | tipifarnib -0.001 | [6] -0.007 | [7] 0.009 | [8] 0

AKAP1 (UniProt Q92667)
inactive: lapatinib 0.002 | pictilisib -0.023 | crizotinib -0.027 | [1] -0.012 | duvelisib 0.148 | gandotinib -0.02 | tozasertib 0.085 | doramapimod 0.02 | bafetinib -0.025 | [2] 0.041 | nilotinib -0.006 | [3] -0.006 | dasatinib -0.066 | [4] 0.006 | [5] 0.118 | quisinostat -0.015 | tipifarnib 0.016 | [6] -0.01 | [7] 0.013 | [8] -0.002

ADI1 (UniProt Q9BV57)
inactive: lapatinib 0.014 | pictilisib 0.043 | crizotinib -0.067 | [1] -0.07 | duvelisib -0.005 | gandotinib 0.078 | tozasertib 0.024 | doramapimod 0.038 | bafetinib -0.034 | [2] 0.086 | nilotinib -0.003 | [3] -0.022 | dasatinib -0.017 | [4] -0.021 | [5] 0.03 | quisinostat -0.074 | tipifarnib -0.017 | [6] 0.003 | [7] -0.027 | [8] -0.012

AGFG1 isoform 4 (UniProt P52594)
inactive: lapatinib 0 | pictilisib -0.084 | crizotinib 0.046 | [1] -0.026 | duvelisib -0.01 | gandotinib 0.102 | tozasertib 0.004 | doramapimod 0.032 | bafetinib -0.008 | [2] 0.014 | nilotinib 0.005 | [3] 0.033 | dasatinib 0.048 | [4] 0.01 | [5] 0.012 | quisinostat 0.003 | tipifarnib -0.03 | [6] -0.007 | [7] 0.009 | [8] 0.003

AIMP1 isoform 2 (UniProt Q12904)
inactive: lapatinib -0.019 | pictilisib -0.004 | crizotinib -0.05 | [1] 0.023 | duvelisib 0.007 | gandotinib -0.085 | tozasertib -0.008 | doramapimod -0.015 | bafetinib -0.041 | [2] -0.012 | nilotinib -0.013 | [3] -0.016 | dasatinib -0.076 | [4] 0.019 | [5] 0.023 | quisinostat 0.01 | tipifarnib 0.013 | [6] 0.044 | [7] -0.011 | [8] 0.001

AIFM1 (UniProt O95831)
inactive: lapatinib 0.025 | pictilisib -0.016 | crizotinib 0.042 | [1] 0.091 | duvelisib -0.005 | gandotinib -0.008 | tozasertib -0.014 | doramapimod 0.005 | bafetinib 0.021 | [2] -0.033 | nilotinib 0.005 | [3] -0.016 | dasatinib 0.034 | [4] 0.003 | [5] -0.005 | quisinostat 0.045 | tipifarnib 0.043 | [6] -0.014 | [7] 0.021 | [8] 0.006

2 entries drawn at random from the list so far:
AKAP1 (UniProt Q92667)
inactive: lapatinib 0.002 | pictilisib -0.023 | crizotinib -0.027 | [1] -0.012 | duvelisib 0.148 | gandotinib -0.02 | tozasertib 0.085 | doramapimod 0.02 | bafetinib -0.025 | [2] 0.041 | nilotinib -0.006 | [3] -0.006 | dasatinib -0.066 | [4] 0.006 | [5] 0.118 | quisinostat -0.015 | tipifarnib 0.016 | [6] -0.01 | [7] 0.013 | [8] -0.002

AIMP1 isoform 2 (UniProt Q12904)
inactive: lapatinib -0.019 | pictilisib -0.004 | crizotinib -0.05 | [1] 0.023 | duvelisib 0.007 | gandotinib -0.085 | tozasertib -0.008 | doramapimod -0.015 | bafetinib -0.041 | [2] -0.012 | nilotinib -0.013 | [3] -0.016 | dasatinib -0.076 | [4] 0.019 | [5] 0.023 | quisinostat 0.01 | tipifarnib 0.013 | [6] 0.044 | [7] -0.011 | [8] 0.001

Following part.

AKAP8 (UniProt O43823)
inactive: lapatinib 0.008 | pictilisib -0.126 | crizotinib 0.023 | [1] 0.035 | duvelisib 0.022 | gandotinib 0.003 | tozasertib 0.017 | doramapimod -0.071 | bafetinib -0.119 | [2] 0.039 | [3] 0.039 | dasatinib 0.01 | [4] -0.001 | [5] 0.006 | quisinostat -0.075 | tipifarnib 0.025 | [6] 0.084 | [7] 0.022 | [8] 0.059
active: nilotinib -0.3
